In PMC5107933:

The substances below were run against T1, Mitsugumin 53 (MG53), endogenous in rabbit skeletal muscle triad vesicles (rabbit (endogenous in skeletal muscle triad vesicles)) (UniProt Q1XH18) (assay: co-IP; solubilized triad vesicle sample from rabbit skeletal muscle (30 μg of total proteins); immunoprecipitation with anti-Orai1 or anti-MG53 antibody; immunoblot with various antibodies; reaction without antibody as negative control).
T1 sequence: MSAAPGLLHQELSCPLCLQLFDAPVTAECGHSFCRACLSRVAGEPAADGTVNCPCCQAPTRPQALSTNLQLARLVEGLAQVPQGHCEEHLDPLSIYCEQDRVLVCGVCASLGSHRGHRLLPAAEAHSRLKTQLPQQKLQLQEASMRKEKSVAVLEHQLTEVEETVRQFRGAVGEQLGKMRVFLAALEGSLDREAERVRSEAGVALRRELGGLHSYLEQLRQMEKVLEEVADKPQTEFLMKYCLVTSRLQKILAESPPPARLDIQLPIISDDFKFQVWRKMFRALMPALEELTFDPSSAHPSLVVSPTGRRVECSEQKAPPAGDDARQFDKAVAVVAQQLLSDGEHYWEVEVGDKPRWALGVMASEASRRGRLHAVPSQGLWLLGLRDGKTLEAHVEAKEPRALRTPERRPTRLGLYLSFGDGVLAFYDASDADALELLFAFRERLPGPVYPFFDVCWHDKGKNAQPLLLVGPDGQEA

binding | Substance
no binding | STIM1, endogenous in rabbit skeletal muscle triad vesicles
no binding | TRPC4, endogenous in rabbit skeletal muscle triad vesicles
binds | TRPC3, endogenous in rabbit skeletal muscle triad vesicles
no binding | Dihydropyridine receptor (DHPR), endogenous in rabbit skeletal muscle triad vesicles

Results are given in words; binding and its absence hold for the method and conditions named. Binding seen in cells or lysates may run through a third protein. Binding can be weak; no strength is given.
